Results reported in PMC4802042.
No constants are given. Whether binding was seen depends on the method and setting.

How the values were obtained:
MKP7-CD (F285D) (human) = MKP7-CD (F285D) (human) (UniProt Q9BY84); assay: SEC; Superdex-200 10/300, 10 mM HEPES pH 7.5, 150 mM NaCl, 2 mM dithiothreitol; 3 molar equivalents of the MKP domain mixed with 1 of JNK1; column calibrated with mass standards; fractions on SDS-PAGE, Coomassie; both purified
[1] = molecular target: MKP7 catalytic domain (MKP7-CD, residues 156-301) (human) (UniProt Q9BY84); assay: as above

B1: MKP7-CD (F285D) (domain or fragment, UniProt Q9BY84 156-301)
chain: NIGPTRILPNLYLGCQRDVLNKELMQQNGIGYVLNASNTCPKPDFIPESHFLRVPVNDSFCEKILPWLDKSVDFIEKAKASNGCVLVHCLAGISRSATIAIAYIMKRMDMSLDEAYRFVKEKRPTISPNDNFLGQLLDYEKKIKNQ
MKP7-CD (F285D) (human)
  binding: no binding

B2: MKP7 catalytic domain (MKP7-CD, residues 156-301) (domain or fragment, UniProt Q9BY84 156-301)
chain: NIGPTRILPNLYLGCQRDVLNKELMQQNGIGYVLNASNTCPKPDFIPESHFLRVPVNDSFCEKILPWLDKSVDFIEKAKASNGCVLVHCLAGISRSATIAIAYIMKRMDMSLDEAYRFVKEKRPTISPNFNFLGQLLDYEKKIKNQ
[1]
  binding: no binding
